Hit rate of the full screen: of about 300,000 compounds, about 950 (0.32%) were called active. Inconclusive means that the source gave no clear call. Such entries were picked first, then a sample of the others.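 Rule for the calls: active = mean activation of at least 10% of the iron chelator positive control signal, with at least half of replicates also reaching 10%; inconclusive = mean and replicate majority disagree about reaching 10%; inactive = mean and most replicates under 10%.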
Assay: HIF pathway transcriptional activators, primary screen, cell-based, U2OS HRE-luciferase, luminescence (AID 1910)
Details: U2OS HRE-luciferase reporter, active compounds read high, screened at 7.5 µM (by protocol), normalized: DMSO 0%, desferrioxamine 100%
With `CCOc1ccc(NC(=O)COc2ccccc2)c([N+](=O)[O-])c1` the activation was inconclusive: 9.11%. For `COc1cccc(C(=O)CN2C(=O)C(C)(C)Oc3ccc(C(=O)N4CCOCC4)cc32)c1`, the activation was inconclusive: 5.16%. With `C=CCSc1cc(C)nc2c(-c3ccccc3)cnn12` the activation was inconclusive: 9.19%. In the case of `O=C(COc1ccccc1)NC(=S)Nc1cccc([N+](=O)[O-])c1`, the activation is reported as inactive: -0.0927%. For `NC(=O)C(c1ccc(Cl)cc1)c1ccc(Sc2ccccc2)nn1` (stereo not given), the activation was inactive: 0.0941%. In the case of `COc1ccc(NC(=O)c2cccc(NC(=O)c3ccco3)c2)c(OC)c1`, the activation is reported as active: 10.1%. For `O=C(c1ccc(N2CCOCC2)cc1)c1cccs1`, the activation was inactive: -0.102%. In the case of `CC(C)(C)c1ccc(-c2cc(-c3ccccc3O)[nH]n2)cc1`, the activation is reported as inactive: 0.117%. For `CCN(CC)C(=O)c1ccc(COc2ccccc2Br)o1`, the activation was inactive: 0.906%. For `CCn1nc(C(=O)OCC(=O)NC(C)C)c2ccccc2c1=O`, the activation was active: 37.8%. With `CN(C)c1ccc(C=C2C(=O)OC(C)(C(C)(C)C)OC2=O)cc1` (stereo not given) the activation was inactive: -0.197%. With `C=CCc1cc(Cl)ccc1OCCCn1ccnc1` the activation was inactive: -2.38%. With `Cc1cccnc1Nc1nc(-c2ccccn2)cs1` the activation was active: 182%. In the case of `O=C(/C=C/c1ccco1)Nc1ccc(Oc2ccccc2)cc1`, the activation is reported as inconclusive: 8.37%. With `CCCCn1c(/C=N/Nc2nc3ccccc3[nH]2)nc2ccccc21` the activation was active: 69.2%. For `Nc1ccnn1-c1ccccc1`, the activation was inconclusive: -1.22%. With `Cc1ccc(-c2cc(-c3ccc(F)cc3)nc(N)c2C#N)o1` the activation was inactive: -0.659%. In the case of `O=C(CSc1nc2ccccc2c(=O)n1-c1ccccc1)NC(=O)CN1CCCC1=O`, the activation is reported as inconclusive: 4.97%. In the case of `COc1ccc(C2CC(c3cccs3)=NN2C(=O)CSc2nc(=O)n3cc(C)ccc3n2)cc1` (stereo not given), the activation is reported as inconclusive: 5.92%. For `COc1cccc(NC(=S)N(CCCN2CCOCC2)Cc2cn(C)c3ccccc23)c1`, the activation was active: 351%. For `COc1cccc2sc(N3CCN(C(=O)c4ccc([N+](=O)[O-])o4)CC3)nc12`, the activation was inconclusive: 5.36%. In the case of `Cc1ccccc1NC(=O)c1ccccc1O`, the activation is reported as active: 408%. For `Cc1ccc2nc(SCC(=O)N3CCCCCC3)nc(=O)n2c1`, the activation was inconclusive: 6.17%. In the case of `O=C(CCc1ccccc1)N/N=C/c1cc(Br)ccc1O`, the activation is reported as active: 12.1%. For `Cc1cc(C)c(S(=O)(=O)N(CC(=O)O)C2CCCCC2)c(C)c1`, the activation was inactive: -0.411%. In the case of `COc1ccc(CNC(=O)C/C(C)=N/NC(=O)c2ccc(OC)cc2OC)cc1`, the activation is reported as inactive: -33.3%. In the case of `Cc1ccc(C)c(-c2nnc(NC(=O)CCS(=O)(=O)c3ccccc3)o2)c1`, the activation is reported as inactive: 0.619%. For `COC(=O)c1ccc(-n2cncn2)c([N+](=O)[O-])c1`, the activation was inconclusive: 8.65%. For `O=C(/C=C/c1ccccc1)NCCc1nc2ccccc2[nH]1`, the activation was inconclusive: 5.38%. With `Oc1cccc(C(Nc2nccs2)c2ccc3cccnc3c2O)c1` (stereo not given) the activation was active: 35.2%. With `O=C(CSc1nnc(-c2ccco2)n1Cc1ccco1)NCc1ccccc1` the activation was inconclusive: 5.39%. In the case of `COc1ccc(NC(=O)CCS(=O)(=O)c2ccc3c(c2)CCN3C(C)=O)cc1`, the activation is reported as active: 10.4%. For `CCOC(=O)/C(C#N)=C/C=C1\C=Cc2ccccc2N1CC`, the activation was active: 17.8%. For `Cc1cc(C)c(C#N)c(SCc2nc3ccccc3[nH]2)n1`, the activation was inactive: 5.02%. In the case of `Cn1cc(-c2cc(C(=O)O)on2)cn1`, the activation is reported as inactive: 0.449%. For `Cn1nnc(NC(=O)c2cccc([N+](=O)[O-])c2)n1`, the activation was inconclusive: 7.22%. With `COc1ccc(/C=C2\SC(=O)N(CCC(=O)N(C)C3CCS(=O)(=O)C3)C2=O)cc1` (stereo not given) the activation was active: 64.3%. For `Cc1ccc(NC(=S)N/C(=N/S(=O)(=O)c2ccccc2)c2ccccc2)cc1`, the activation was active: 10.3%. With `Cc1ccc(Oc2ncc(CN3CC(C)OC(C)C3)s2)cc1` (stereo not given) the activation was inconclusive: 6.7%. In the case of `O=c1[nH]c(C2CCN(S(=O)(=O)c3cccc(C(F)(F)F)c3)CC2)nc2c1nnn2Cc1cccc(F)c1`, the activation is reported as inconclusive: 5.59%. With `N#C/C(=C(/O)c1ccc(F)cc1)c1nc2ccccc2s1` the activation was inconclusive: 7.61%. With `CCC1CCCCN1CCCNC(=O)C1CCN(c2nnc(-n3cccc3)s2)CC1` (stereo not given) the activation was inconclusive: 4.76%. In the case of `Cc1cc(N/C=C/C(=O)c2ccc(Br)cc2)no1`, the activation is reported as inconclusive: 8.07%. With `CC(=O)Nc1ccc(S(=O)(=O)/N=C2\C(=O)c3ccccc3C([O-])=C2n2cc[n+](-c3ccccn3)c2)cc1` the activation was inconclusive: 7.85%. For `O=C(CCCO)N/N=C/c1cc(Br)ccc1O`, the activation was inactive: -1.18%. In the case of `O=C(NCc1ccco1)c1cc(-c2ccccc2)on1`, the activation is reported as active: 12%. In the case of `CC1CN(S(=O)(=O)c2cccc(C(=O)N(CCc3ccccc3)Cc3ccccc3)c2)CC(C)O1` (stereo not given), the activation is reported as inconclusive: 6.57%. With `CSc1cccc(NS(=O)(=O)c2ccccc2)c1` the activation was inactive: -0.185%. For `COCCNC(=O)c1sc2nc(-c3ccccc3)cn2c1C`, the activation was active: 71%. For `Cc1ccc(Oc2ccc(NC(=O)CSc3n[nH]c(N)n3)cc2)cc1`, the activation was inactive: -2.52%. With `CCCCNC(=S)Nc1ccc2cn[nH]c2c1` the activation was inconclusive: -4.76%. With `Cc1cc(C)cc(N(CC(=O)Nc2ccccc2C(=O)N2CCOCC2)S(C)(=O)=O)c1` the activation was inconclusive: 8.56%. For `CCc1n[nH]c(=S)n1/N=C/c1ccc(-c2ccc(Br)cc2)o1`, the activation was active: 21.6%. For `COc1ccc(CNC(=S)N/N=C/c2ccc(O)c(OC)c2)cc1`, the activation was active: 20.5%. For `CC1CCN(C(=O)CS(=O)(=O)Cc2ccccc2)CC1`, the activation was inconclusive: 7.1%. In the case of `CCCOc1ccc(/C=N/NC(=O)CSc2ccccn2)cc1OC`, the activation is reported as inconclusive: 8.61%. With `N#CC(=C=[N-])c1nc2ccccc2nc1-[n+]1cccc(NC(=O)c2ccc(F)cc2)c1` the activation was inconclusive: 7.62%. In the case of `Cc1ccc(C(=O)Nc2ccc3c(c2)nc(CCNC(=O)c2ccco2)n3C)cc1`, the activation is reported as inconclusive: 9.47%. With `CCOC(=O)c1c(C)[nH]c(C(=O)OCc2ccccc2F)c1C` the activation was active: 10.6%. For `CCCOc1cccc(C2C(C(=O)c3ccco3)=C(O)C(=O)N2CCN(CC)CC)c1` (stereo not given), the activation was inactive: -0.276%. With `CC(=O)Nc1c([N+](=O)[O-])cc(C)c(Cl)c1[N+](=O)[O-]` the activation was active: 12.8%. With `CN(/N=C/c1c[nH]c2ccccc12)c1cnn(-c2ccc(F)c(Cl)c2)c(=O)c1Cl` the activation was inconclusive: 8.96%. For `Oc1ccc2ccccc2c1N=Nc1nccs1`, the activation was active: 68.6%. In the case of `COCCn1c(C)cc(C(=O)COC(=O)c2ccc3ncsc3c2)c1C`, the activation is reported as inconclusive: 9.3%. For `O=C(NCc1ccco1)C1CCCN(S(=O)(=O)c2ccc(Br)cc2)C1` (stereo not given), the activation was inactive: -0.213%. With `CCOC(=O)C1(C)NC(c2ccc(OC)cc2OC)C2C(=O)N(CC)C(=O)C21` (stereo not given) the activation was active: 528%. In the case of `Brc1ccccc1-n1nnc(-c2nccs2)n1`, the activation is reported as inactive: 5%. In the case of `CC(C)CNC(=O)COC(=O)c1ccc(F)cc1Cl`, the activation is reported as inactive: 0.93%. In the case of `COc1ccc2nc(C)cc(SCC(=O)N/N=C/c3ccc(O)cc3O)c2c1`, the activation is reported as active: 21.8%. For `CCN(CC)CCOC(=O)C(Cc1ccco1)Cc1cccc2ccccc12` (stereo not given), the activation was inconclusive: 4.98%. For `COc1ccc(CN2CCNC(=O)C2CC(=O)N(C)CC2CCOCC2)cc1OC` (stereo not given), the activation was active: 25.8%. In the case of `O=C(CN(CCc1ccccc1)S(=O)(=O)c1ccc(Cl)cc1)N/N=C/c1ccccc1C(=O)O`, the activation is reported as inactive: -0.256%. For `CCn1ccnc1C(O)c1ccccc1OC` (stereo not given), the activation was active: 27.1%. In the case of `O=C(N/N=C/c1ccc(F)cc1)c1cc(-c2ccc3c(c2)OCO3)n[nH]1`, the activation is reported as inconclusive: 6.54%. In the case of `COc1ccc(C(=O)N2CCCCCC2)cc1S(=O)(=O)N1CCOCC1`, the activation is reported as inconclusive: 5.46%. For `O=C(CSc1ccc(-c2ccccn2)nn1)Nc1nccs1`, the activation was inconclusive: 8.48%. In the case of `COc1ccc(C)cc1NC(=O)c1ccc(N(C)S(C)(=O)=O)cc1`, the activation is reported as inconclusive: 4.21%. In the case of `O=C(CSc1nnc(-c2ccncc2)o1)N1CCCCCC1`, the activation is reported as inconclusive: 3.88%. For `Cn1ncc(Cl)c1C(=O)Nc1nc2ccc(Cl)cc2s1`, the activation was inconclusive: 6.3%. With `O=C(Nc1nc2ccc([N+](=O)[O-])cc2s1)c1c(F)cccc1F` the activation was inconclusive: 5.82%. With `c1ccc(-c2cccc(-c3ccccn3)n2)nc1` the activation was active: 212%. For `Cn1ncc(Br)c1NC(=O)CSc1ccc(Cl)cc1`, the activation was inconclusive: 5.07%. With `CCOc1cc(S(=O)(=O)NC2CCCCCC2)ccc1F` the activation was inactive: -0.0462%. With `COc1ccccc1N1CCN(Cc2cc(Br)c(O)c3ncccc23)CC1` the activation was active: 12.5%. For `O=C(NC1CC(=O)c2sccc21)c1cccc(C(F)(F)F)c1` (stereo not given), the activation was inactive: -0.182%. In the case of `Cc1cc(=O)[nH]c(SCC(=O)Nc2nonc2C)n1`, the activation is reported as inconclusive: 5.83%. For `Cc1ccc(SCC(=O)O/N=C(\N)c2ccc([N+](=O)[O-])cc2)cc1`, the activation was inactive: -0.141%. For `CC1CCCN(C(=O)C2CC(=O)N(c3ccc(Cl)cc3)C2)C1` (stereo not given), the activation was inactive: -2.21%. For `Cc1ccc(NC2CCCN(C(=O)C3CCCCC3)C2)cc1C` (stereo not given), the activation was inconclusive: 6.79%. With `CC(C)CC1NC(=O)N(Cc2cc(=O)n3ccsc3n2)C1=O` (stereo not given) the activation was inconclusive: 5.23%. With `COc1ccc(NCc2cc(=O)oc3cc(NC(C)=O)ccc23)cc1` the activation was inactive: -0.066%. With `O=C(Nc1ccccc1)N(C1=NCCCCS1)c1cccc2ccccc12` the activation was inconclusive: 6.2%. For `S=C1NC2=C(CCCC2=C2SCCS2)C(c2ccccc2)N1` (stereo not given), the activation was active: 69.3%. For `Cn1c(=O)cc(C(=O)N/N=C/c2ccc(F)cc2)[nH]c1=O`, the activation was active: 11.8%. For `Cc1nc([N+](=O)[O-])c(Br)n1Cc1ccc(Cl)c(Cl)c1`, the activation was inconclusive: 9.43%.

From PubChem BioAssay AID1910 (Broad Institute, 2009)
